Entries after “also recorded” stand apart in the source; their conditions may differ. At least one compound was matched to its structure with a doubt left.
System: GFP-labeled T-cells
Test: RAG2-GFP thymocyte response to dexamethasone (loss of GFP expression in the thymus)
Type: in vivo, zebrafish

## C[C@@H]1C[C@H]2[C@@H]3CCC4=CC(=O)C=C[C@]4(C)[C@@]3(F)[C@@H](O)C[C@]2(C)[C@@]1(O)C(=O)CO [dexamethasone]
25 μg/mL dose, by 3 days post-treatment
  fish showing complete absence of T-cells: 2 of 6
25 μg/mL dose, by 3 days post-treatment, listed as DEX
  response / T-cells in the thymus: Partial responses; also recorded: decreased T-cells
250 μg/mL DEX, 3 days post-treatment (8 dpf)
  GFP-positive T-cells in RAG2-GFP embryos: not detected
25 milligrams/microliter of dexamethasone, 5 day old RAG2-GFP fish, by 8 dpf
  fish lacking GFP-labeled cells: 2 of 6
25 milligrams/microliter treatment group, some fish
  amount of T-cells compared to controls: significantly less T-cells

From patent publication US7525011B2, “Transgenic cancer models in fish” (Dana-Farber Cancer Institute, priority 2002, dated 2009)
